According to PMC2639705, “Two Chromogranin A-Derived Peptides Induce Calcium Entry in Human Neutrophils by Calmodulin-Regulated Calcium Independent Phospholipase A2” (PLoS ONE, 2009):
“Also recorded” adds a separate entry of the source.

Test system: PMNs
Assay: HPLC and NanoLC-MS/MS proteomic analysis of PMN secretions induced by CHR and CAT
Conditions: Biological sample name Castestatin_11; MS/MS sample name F011563 (F013479); Mascot, SwissProt 55.5, trypsin; Protein Thresholds: 1 peptides score > 52 or at least 2 peptides with score >20

With “Castestatin (SSMKLSFRARAYGFRGPGPQL; Catestatin; UniProt P10645 370-390, looked up)” the “Protein name (protein identified by MS/MS in PMN secretion sample)” value was “Gelsolin precursor - Homo sapiens (Human); also recorded: Beta-2-microglobulin precursor [Contains: Beta-2-microglobulin form pI 5.3] - Homo sapiens (Human); also recorded: Matrix metalloproteinase-9 precursor - Homo sapiens (Human); also recorded: Profilin-1 - Homo sapiens (Human); also recorded: Lactotransferrin precursor - Homo sapiens (Human)”.
